Assay results from US20240299519A1.
Substitutions are numbered along the chain they refer to. These are yes or no findings as the source states them, for the method shown. Some entries that bind do so weakly or less than the wild type.

T1: CD99 antigen (Origene, Sku #TP304058) (UniProt P14209)
T1 sequence (looked up): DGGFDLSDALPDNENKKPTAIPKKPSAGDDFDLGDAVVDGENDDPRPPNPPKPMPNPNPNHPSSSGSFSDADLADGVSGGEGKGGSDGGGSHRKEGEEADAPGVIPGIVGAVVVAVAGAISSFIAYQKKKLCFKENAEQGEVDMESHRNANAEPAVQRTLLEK

B1: antibody of hybridoma clone 4C5E2 (antibody, V domains shown)
VH: EVQLEESGGGLVQPKGSLKLSCAASGFTFNTYAMYWVCQAPGKGLKWVARIRSKVNNYATYYADSVKDRFTISRDDSQNMLFLHMNNLKTEDTAIYFCVRDPMDYWGQGISVTVSS
VL: DIVMTQAAPSVPVTPGESVSISCGSSKSLLHSNGNTYLYWFLQRPGQSPQLLIYRVSNLASGVPDRFSGSGSGTAFTLRISRVEAEDVGVYYCMQHLEYPYTFGGGTRLEIK
B2: antibody of hybridoma clone 4C5H10 (antibody, V domains shown)
VH: B1 VH with E5V
VL: B1 VL

Target: T1, CD99 antigen (Origene, Sku #TP304058)
Assay: hybridoma screening, assay not given

Binder | binding
B1 | binds
B2 | binds
